Results from publication doi:10.64898/2025.12.10.693398.

Chains of the proteins cited; added tags and fusions are not shown. Lines headed by an entry give the natural chain unless they say otherwise; changes in a name come on top.
UniProt P62814: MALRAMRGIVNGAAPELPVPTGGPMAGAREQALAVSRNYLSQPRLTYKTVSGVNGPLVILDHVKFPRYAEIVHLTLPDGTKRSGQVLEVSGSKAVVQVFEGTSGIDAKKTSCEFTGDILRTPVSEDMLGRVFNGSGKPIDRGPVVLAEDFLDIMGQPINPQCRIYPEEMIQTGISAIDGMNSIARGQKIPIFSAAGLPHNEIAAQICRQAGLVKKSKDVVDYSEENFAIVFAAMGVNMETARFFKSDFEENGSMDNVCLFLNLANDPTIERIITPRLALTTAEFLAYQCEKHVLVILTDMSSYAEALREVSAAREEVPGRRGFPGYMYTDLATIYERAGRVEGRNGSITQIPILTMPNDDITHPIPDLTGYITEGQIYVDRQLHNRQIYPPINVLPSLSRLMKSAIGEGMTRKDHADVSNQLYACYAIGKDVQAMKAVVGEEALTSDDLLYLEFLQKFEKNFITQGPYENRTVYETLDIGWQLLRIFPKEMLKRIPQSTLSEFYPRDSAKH
UniProt Q9JHF5: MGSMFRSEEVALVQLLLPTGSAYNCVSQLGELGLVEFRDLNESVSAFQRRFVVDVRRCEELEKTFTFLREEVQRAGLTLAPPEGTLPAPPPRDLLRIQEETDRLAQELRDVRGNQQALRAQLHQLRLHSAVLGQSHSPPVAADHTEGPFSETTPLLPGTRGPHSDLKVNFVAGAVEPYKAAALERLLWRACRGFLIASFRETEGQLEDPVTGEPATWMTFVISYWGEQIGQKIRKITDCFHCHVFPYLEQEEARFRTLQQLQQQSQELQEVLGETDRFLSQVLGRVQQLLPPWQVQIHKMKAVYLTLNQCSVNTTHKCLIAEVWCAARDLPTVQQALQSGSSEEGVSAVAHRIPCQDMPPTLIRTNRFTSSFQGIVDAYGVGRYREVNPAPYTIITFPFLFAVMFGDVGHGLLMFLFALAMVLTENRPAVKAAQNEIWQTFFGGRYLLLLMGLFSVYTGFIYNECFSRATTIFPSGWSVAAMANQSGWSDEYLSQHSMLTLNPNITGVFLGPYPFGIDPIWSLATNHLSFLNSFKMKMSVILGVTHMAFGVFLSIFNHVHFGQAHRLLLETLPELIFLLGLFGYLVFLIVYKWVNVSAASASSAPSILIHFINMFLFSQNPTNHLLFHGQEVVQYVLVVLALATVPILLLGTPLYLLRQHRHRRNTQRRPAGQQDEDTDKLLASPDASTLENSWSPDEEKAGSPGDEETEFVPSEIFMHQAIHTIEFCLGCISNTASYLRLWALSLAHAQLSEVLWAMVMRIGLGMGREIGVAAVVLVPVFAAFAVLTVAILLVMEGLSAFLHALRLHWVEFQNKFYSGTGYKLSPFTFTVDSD

Molecular target: HA-V1b2 (mouse) (UniProt P62814)
Assay: co-IP

Q: Which binding does the source give for Flag-Voa3 (from UniProt Q9JHF5) here?
A: binds

These are yes or no findings as the source states them, for the method shown. Binding seen in cells or lysates may run through a third protein. A result given as binding can be weak or reduced; the word gives no strength.
